Measurements published in PubChem BioAssay AID2685 (National Center for Advancing Translational Sciences (NCATS), 2010).
The other results are listed elsewhere or left out. These are further read-outs of the screen, such as a control signal, another cell line or another target. No call is given for them. The list favours compounds with an active or inconclusive main result. Words in brackets tell the shape of the fitted curve; partial curves, single points and poor fits give uncertain potencies.

Assay: qHTS Assay for Lipid Storage Modulators in Drosophila S3 Cells;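 on cell number change: cells counted by Cell Tracker Red CMTPX staining in the red channel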
Conditions: BODIPY lipid droplet fluorescence, 18-24 h; for cell number change: measured here: cell count max response, cells fed with added oleic acid
Procedure, shortened: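 Drosophila S3 cells got compounds at several concentrations plus oleic acid (400 uM solution). Laser-scanning cytometry with 488 nm excitation read lipid droplets at 500-530 nm and cells at 575-640 nm. Percent activity was relative to 20 uM Triacsin C.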

[1] = measured here: cell number channel AC50, cells fed with added oleic acid
[2] = measured here: lipid fluorescence (Fed channel) AC50, cells fed with added oleic acid

Compound | cell number change [%] | AC50 [1] | AC50 [2]
Cc1cc(C)nc(N/N=C/c2cccc(Cl)c2)n1 | 29 | 0.92 µM [rising, full curve, poor fit] | –
O=C(Cn1cnc2ccccc21)Nc1ccc2c(c1)OCCCO2 | -16.8 | – | 4.61 µM [falling, full curve]
Cn1cc(SCC(=O)N2CCN(c3ccccc3)CC2)c2ccccc21 | 4.82 | – | 1.3 µM [rising, full curve]
COc1ccc(OCCSc2nc3nc(C)cc(C)n3n2)cc1 | – | 6.51 µM [rising, single point] | –
Cc1ccc(CC(=O)N2CCN(c3cccc(C(F)(F)F)c3)CC2)cc1 | -6.75 | – | 0.58 µM [rising, single point]
O=C(N/N=C/c1cccnc1)c1cc(-c2ccccc2OCc2ccccc2)n[nH]1 | -30.3 | 29.1 µM [falling, single point] | 29.1 µM [falling, single point]
CN1CCCN=C1COC(=O)C(O)(c1ccccc1)C1CCCCC1 (stereo not drawn) | 2.79 | – | 6.51 µM [rising, single point]
O=C(COC(=O)c1cc(S(=O)(=O)N2CCCCC2)ccc1Cl)NCc1ccco1 | -37.8 | 29.1 µM [falling, single point] | –
COCCNC(=O)[C@@H]1CCCN1C(=O)C1CCN(S(=O)(=O)c2ccc(C)cc2)CC1 | -1.65 | – | 0.00517 µM [falling, full curve, poor fit]
CCCC(=O)N1CCc2cc(-c3nc(N)sc3C)ccc21 | -28.4 | 0.731 µM [falling, full curve, poor fit] | 0.651 µM [falling, single point]
COc1ccc(Cn2c(-c3ccc(C)cc3)nc3c(c(=O)c4ccccc4n3C)c2=O)cc1 | 16 | – | 3.26 µM [falling, single point]
CN1CCc2ccccc2C1C1CCNCC1 (stereo not drawn) | -43.4 | 11.6 µM [falling, partial curve] | 4.61 µM [falling, full curve, poor fit]
N#CCC(=O)N/N=C/c1c(-c2ccccc2)n(-c2ccccc2)c2ccccc12 | 46.6 | 16.4 µM [rising, partial curve] | –
COc1ccccc1NS(=O)(=O)c1cc(NC(=O)c2cccs2)ccc1N1CCCCC1 | -63 | 25.9 µM [falling, partial curve, poor fit] | –
CCOC(=O)C(Sc1nnc2c3ccccc3n(CC)c2n1)C(=O)OCC | – | 1.3 µM [rising, full curve] | –
O=C(CCN1CCCCC1)Nc1cccc(Br)c1 | 0.794 | – | 0.103 µM [rising, full curve, poor fit]
CCN(CC)S(=O)(=O)c1cc(OC)ccc1N=Nc1ccc(O)c2ncccc12 | 8.97 | – | 29.1 µM [rising, single point]
CCCCc1ccc(NC(=O)CN2C(=O)C3CCCCC3C2=O)cc1 (stereo not drawn) | -28.8 | – | 6.51 µM [falling, single point]
COC(=O)c1ccc(NCC(=O)c2ccccc2)cc1 | -29.5 | 0.0291 µM [falling, full curve, poor fit] | 0.731 µM [falling, full curve, poor fit]

Compound | cell number change [%] | AC50 [1] | AC50 [2]
Cc1ccc(S(=O)(=O)N2CCOCC2)cc1NC(=O)CN1CCN(c2ccc(O)cc2)CC1 | -17.4 | – | –
CC(C)(C)C(=O)NCCCNc1ccc([N+](=O)[O-])cc1 | -44 | – | –
COC(CNC(=O)CNC(=S)N(Cc1ccccc1)Cc1cccnc1)OC | 30.1 | 0.326 µM [rising, full curve, poor fit] | 6.51 µM [rising, single point]
Cc1c(-c2ccccc2)nc(-c2ccccc2)[nH]c1=O | -11.7 | – | 29.1 µM [falling, single point]
COc1cccc(CNCC(O)(c2ccc(Cl)cc2)c2ccc(Cl)cc2)c1 | -53.6 | 29.1 µM [falling, single point] | 6.51 µM [rising, partial curve, poor fit]
COc1ccc(C(=O)c2sc(Nc3cccc(OC)c3)c(C(=O)Nc3cccc(C)c3C)c2N)cc1 | -53.3 | 29.1 µM [falling, single point] | –
COc1ccc(C(=O)/C=C/c2ccc(OC)c(COc3ccccc3F)c2)cc1 | -12.1 | – | 29.1 µM [falling, single point]
COC(=O)NNC(=O)c1ccc(Cl)cc1Cl | 52.8 | 29.1 µM [rising, single point] | 29.1 µM [rising, single point]
Cc1ccc(CSc2nnnn2C)cc1 | -32.2 | 6.51 µM [falling, full curve, poor fit] | 6.51 µM [falling, single point]
N#Cc1ccccc1S(=O)(=O)N1CCN(C(=O)Cc2coc3cc(O)ccc23)CC1 | 23 | – | 6.51 µM [rising, partial curve, poor fit]
CCOC(=O)C1CCN(S(=O)(=O)c2ccc(C(=O)OC)cc2)CC1 | -31.3 | 20.6 µM [falling, single point] | 18.4 µM [falling, partial curve]
COc1ccc(Nc2cc(C(=O)NCc3ccco3)c3ccccc3n2)cc1 | 18.8 | – | 0.103 µM [rising, partial curve, poor fit]
COc1cc(C(=O)OCCc2c(C)nc3nc[nH]n3c2=O)cc(OC)c1OC | -30.9 | 23.1 µM [falling, single point] | –
CCCn1c(=O)c(-c2ccccc2)c(O)c2ccccc21 | 17.1 | – | 6.51 µM [falling, single point]
CN(C)S(=O)(=O)c1cccc(NC(=O)c2cccc(NS(=O)(=O)c3ccccc3)c2)c1 | -50.8 | 11.6 µM [falling, partial curve, poor fit] | 29.1 µM [falling, single point]
COCCOC(=O)N/C=C\c1nc2ccccc2c(=O)[nH]1 | 28.9 | – | 0.13 µM [rising, full curve, poor fit]
COC(=O)c1ccc(NC(=O)CCn2cccc2)cc1 | -29.9 | – | 32.6 µM [falling, single point]
COn1c(SCc2ccc(Cl)cc2)nc2ccccc2c1=O | 120 | 29.1 µM [rising, single point] | –
O=C(CCNC(=O)c1ccccc1Cl)Nc1ccc(S(=O)(=O)Nc2ncccn2)cc1 | -32.3 | – | 3.26 µM [falling, full curve]

Compound | cell number change [%] | AC50 [1] | AC50 [2]
Fc1ccc(C(c2nnnn2Cc2ccccc2)N2CCSCC2)cc1 (stereo not drawn) | 3.79 | – | 3.66 µM [rising, partial curve]
Cc1ccc(C(=O)NCCSC(C)(C)C)cc1[N+](=O)[O-] | -25.4 | – | 1.84 µM [rising, partial curve, poor fit]
C=CCN(CC=C)S(=O)(=O)c1ccc(NC(=S)NC(=O)/C=C/c2cccc3ccccc23)cc1 | -5.38 | – | –
COc1ccc(CN(Cc2cccn2C)S(=O)(=O)c2ccccc2)cc1 | – | – | 6.51 µM [rising, single point]
Cc1cc(Oc2ccc(C)c(Cl)c2)nc(SCC(=O)c2ccccc2)n1 | 41.4 | 29.1 µM [rising, single point] | 29.1 µM [rising, single point]
CC1c2ccccc2SC(CCCN(C)C)c2ccccc21 (stereo not drawn) | 2.54 | – | 0.164 µM [falling, full curve, poor fit]
COc1ccc(C(=O)NNC2=C(C(=O)C(F)(F)F)CCC2)cc1 | 13.1 | – | 10.3 µM [rising, partial curve, poor fit]
Cc1ccc(C(=O)NCc2ccc3c(c2)OCO3)cc1N1CCCC1=O | -13 | – | 0.00461 µM [rising, full curve, poor fit]
COc1cc2c(cc1NC(=O)C(C)Sc1nc3ccccc3n1C)oc1ccccc12 (stereo not drawn) | 27.9 | – | 29.1 µM [rising, partial curve]
COc1ccc(OC)c(N(CC(=O)NN=C2CCN(C)CC2)S(=O)(=O)c2ccccc2)c1 | -47.4 | 32.6 µM [falling, single point] | –
Cc1ccc(S(=O)(=O)N(C)c2ccccc2C(=O)Nc2c(F)cccc2F)cc1 | -36.5 | 20.6 µM [falling, single point] | 29.1 µM [falling, single point]
CC(=O)OC(C(=O)NCc1ccco1)c1cccnc1 (stereo not drawn) | -75.1 | 25.9 µM [falling, partial curve, poor fit] | 0.517 µM [falling, partial curve, poor fit]
O=C(CSCc1ccc(Cl)cc1)NN=C1CCCC1 | 17.6 | – | 20.6 µM [rising, single point]
COc1ccc(C(=O)OC2CCN(c3ncc(C(F)(F)F)cc3Cl)CC2)cc1 | -44.4 | 4.61 µM [falling, single point] | 6.51 µM [falling, single point]
COC(C[C@@H](O)[C@@H](C)[C@H](O)COCc1ccccc1)OC | 26.4 | – | –
O=C(c1ccc2oc(CCCc3ccccc3)nc2c1)N1CCCC(CCCO)C1 (stereo not drawn) | – | – | 20.6 µM [falling, single point]
CCCNC(=O)CCC(=O)Nc1ncc(-c2ccc(C)cc2)n1C | – | 4.61 µM [rising, single point] | –
CC1CCN(C(=O)c2cc3ccccc3o2)CC1 | 143 | 18.4 µM [rising, single point] | 6.51 µM [rising, single point]

Some of the entries so far, tab-delimited:
Compound	cell number change [%]	AC50 [1]	AC50 [2]
C=CCN(CC=C)S(=O)(=O)c1ccc(NC(=S)NC(=O)/C=C/c2cccc3ccccc23)cc1	-5.38	–	–
COc1ccc(CN(Cc2cccn2C)S(=O)(=O)c2ccccc2)cc1	–	–	6.51 µM [rising, single point]
